Some of these results come from one statement about several compounds together. For at least one compound, name, drawing or mass did not settle the structure.
Biological target: T1, PHP1 (Homo sapiens, UniProt Q9NRX4)
T1 sequence (Q9NRX4 1-125): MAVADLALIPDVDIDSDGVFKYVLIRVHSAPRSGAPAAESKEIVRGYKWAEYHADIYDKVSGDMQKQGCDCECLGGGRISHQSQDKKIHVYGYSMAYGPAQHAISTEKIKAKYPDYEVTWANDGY
Assay: pH-dependence of conversion of fluorogenic and chromogenic substrates by PHP1
Assay type: biochemical
Conditions: pH varied 5-9, standard emission wavelengths, 0.1 μM PHP1
Description: Because it is well known that the use of phospho fluorophores like DIFMUP, MUP, DDAO or FDP as phosphatase substrates have certain limitations due to the compatibility of the substrate pKa-values with the pH-optima of the respective phosphatase, the pH-dependence of the PHP1 reactivity towards the aforementioned fluorogenic substrates is to be determined. As shown in FIG. 1 the pH is varied from pH=5-9 in steps of 0.5 pH-units. In order to avoid undesired fluorescence flattening effects due to high absorption by the accumulating reaction product the initial reaction velocity is used as relative measure for the pH-dependence of PHP1-reactivity towards the selected substrate.
To start the reaction PHP1 was added from a pre dilution in the respective reaction buffer to yield a final concentration of 0.1 μM. The reaction was monitored by recording the increase in relative fluorescence at the respective fluorescence emission maxima (Fluoromax Gemini XL microplate reader).

With `CC1(C)C2=C(Cl)C(=O)C(Cl)=CC2=Nc2ccc(OP(=O)(O)O)cc21` [DDAO, 9H-(1,3-dichloro-9,9-dimethyl-acridin-2-one-7-yl)phosphate] the “pH of maximum turnover rate by PHP1” value was 6.5-7.

From patent publication US7348160B2, “Phosphoamidase assay” (Merck Patent GmbH, priority 2002, dated 2008)
